Measured values taken from the supplement of paper PMC12819154, “High-throughput peptide-centric local stability assay extends protein–ligand identification to membrane proteins, tissues and bacteria” (Nature Structural & Molecular Biology, 2025).
The list shows a part of the results. Small differences around the control level are noise.

Sequences of proteins named here, by UniProt entry; tags and fusion partners are left off. A change or cut given only in a name is not applied to a line headed by its entry.
UniProt Q6ZVM7: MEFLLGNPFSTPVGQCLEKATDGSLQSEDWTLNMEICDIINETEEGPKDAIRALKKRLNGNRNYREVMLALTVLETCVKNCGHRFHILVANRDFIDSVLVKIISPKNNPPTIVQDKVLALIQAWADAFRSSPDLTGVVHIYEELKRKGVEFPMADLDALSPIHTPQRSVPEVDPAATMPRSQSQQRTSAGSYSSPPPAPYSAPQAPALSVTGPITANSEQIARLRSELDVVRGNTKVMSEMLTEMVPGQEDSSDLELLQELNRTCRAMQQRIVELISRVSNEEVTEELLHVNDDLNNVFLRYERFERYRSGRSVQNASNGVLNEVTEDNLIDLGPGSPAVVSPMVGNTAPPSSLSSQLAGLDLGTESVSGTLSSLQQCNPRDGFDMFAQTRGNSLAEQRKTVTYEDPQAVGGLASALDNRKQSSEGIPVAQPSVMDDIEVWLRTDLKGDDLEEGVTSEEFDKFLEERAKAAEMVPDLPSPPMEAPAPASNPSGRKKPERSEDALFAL
UniProt Q7Z6E9: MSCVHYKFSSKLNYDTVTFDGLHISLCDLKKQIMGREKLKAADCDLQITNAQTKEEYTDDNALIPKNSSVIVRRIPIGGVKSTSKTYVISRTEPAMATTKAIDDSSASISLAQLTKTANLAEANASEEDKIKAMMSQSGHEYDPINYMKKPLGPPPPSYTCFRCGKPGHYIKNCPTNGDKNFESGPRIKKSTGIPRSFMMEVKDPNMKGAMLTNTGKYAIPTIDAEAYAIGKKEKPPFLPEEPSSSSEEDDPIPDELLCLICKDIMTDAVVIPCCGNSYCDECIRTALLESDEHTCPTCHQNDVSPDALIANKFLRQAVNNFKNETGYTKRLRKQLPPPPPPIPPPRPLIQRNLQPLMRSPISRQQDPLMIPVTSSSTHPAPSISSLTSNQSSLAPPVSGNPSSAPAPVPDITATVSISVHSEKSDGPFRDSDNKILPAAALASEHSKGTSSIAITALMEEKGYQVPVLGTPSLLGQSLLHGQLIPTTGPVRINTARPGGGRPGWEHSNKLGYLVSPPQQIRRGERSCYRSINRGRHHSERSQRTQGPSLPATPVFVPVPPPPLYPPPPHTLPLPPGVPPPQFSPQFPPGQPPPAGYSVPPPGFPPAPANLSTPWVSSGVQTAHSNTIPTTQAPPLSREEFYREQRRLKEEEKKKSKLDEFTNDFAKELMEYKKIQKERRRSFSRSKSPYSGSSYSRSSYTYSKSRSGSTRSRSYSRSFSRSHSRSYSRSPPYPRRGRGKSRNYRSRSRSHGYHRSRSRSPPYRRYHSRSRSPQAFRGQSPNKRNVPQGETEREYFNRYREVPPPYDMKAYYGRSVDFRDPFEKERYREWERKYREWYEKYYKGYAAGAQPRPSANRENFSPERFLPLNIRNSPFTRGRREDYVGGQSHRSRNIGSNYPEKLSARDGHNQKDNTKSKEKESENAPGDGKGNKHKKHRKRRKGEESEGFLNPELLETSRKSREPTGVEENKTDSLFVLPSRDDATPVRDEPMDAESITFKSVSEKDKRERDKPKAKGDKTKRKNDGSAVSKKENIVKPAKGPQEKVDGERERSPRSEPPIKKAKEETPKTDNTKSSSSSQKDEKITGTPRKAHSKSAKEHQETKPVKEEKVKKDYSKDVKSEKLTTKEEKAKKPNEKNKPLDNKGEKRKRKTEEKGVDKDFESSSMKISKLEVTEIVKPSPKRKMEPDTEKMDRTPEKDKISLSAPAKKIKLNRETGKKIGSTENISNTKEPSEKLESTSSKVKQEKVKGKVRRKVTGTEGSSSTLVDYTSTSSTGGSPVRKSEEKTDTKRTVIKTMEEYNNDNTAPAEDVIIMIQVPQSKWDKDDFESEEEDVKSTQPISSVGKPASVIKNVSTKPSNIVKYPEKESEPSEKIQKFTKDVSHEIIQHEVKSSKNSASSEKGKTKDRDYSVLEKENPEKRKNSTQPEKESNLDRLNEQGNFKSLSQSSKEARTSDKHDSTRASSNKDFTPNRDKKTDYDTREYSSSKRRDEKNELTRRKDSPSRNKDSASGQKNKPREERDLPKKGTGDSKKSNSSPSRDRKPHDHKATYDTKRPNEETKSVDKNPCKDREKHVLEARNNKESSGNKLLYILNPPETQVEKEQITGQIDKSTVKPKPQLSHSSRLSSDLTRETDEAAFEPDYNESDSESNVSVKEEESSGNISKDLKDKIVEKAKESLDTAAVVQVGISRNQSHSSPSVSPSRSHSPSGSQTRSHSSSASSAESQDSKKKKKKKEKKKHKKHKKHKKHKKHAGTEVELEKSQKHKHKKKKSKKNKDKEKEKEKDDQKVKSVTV
UniProt Q7L3S4: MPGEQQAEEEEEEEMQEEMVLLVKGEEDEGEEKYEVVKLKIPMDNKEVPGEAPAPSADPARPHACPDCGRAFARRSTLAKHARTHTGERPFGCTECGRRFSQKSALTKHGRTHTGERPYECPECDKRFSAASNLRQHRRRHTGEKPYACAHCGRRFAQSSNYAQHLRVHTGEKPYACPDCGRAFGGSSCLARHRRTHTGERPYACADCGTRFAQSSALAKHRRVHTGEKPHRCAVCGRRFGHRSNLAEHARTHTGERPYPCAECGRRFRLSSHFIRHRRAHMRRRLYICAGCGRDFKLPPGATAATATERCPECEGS
UniProt Q7Z569: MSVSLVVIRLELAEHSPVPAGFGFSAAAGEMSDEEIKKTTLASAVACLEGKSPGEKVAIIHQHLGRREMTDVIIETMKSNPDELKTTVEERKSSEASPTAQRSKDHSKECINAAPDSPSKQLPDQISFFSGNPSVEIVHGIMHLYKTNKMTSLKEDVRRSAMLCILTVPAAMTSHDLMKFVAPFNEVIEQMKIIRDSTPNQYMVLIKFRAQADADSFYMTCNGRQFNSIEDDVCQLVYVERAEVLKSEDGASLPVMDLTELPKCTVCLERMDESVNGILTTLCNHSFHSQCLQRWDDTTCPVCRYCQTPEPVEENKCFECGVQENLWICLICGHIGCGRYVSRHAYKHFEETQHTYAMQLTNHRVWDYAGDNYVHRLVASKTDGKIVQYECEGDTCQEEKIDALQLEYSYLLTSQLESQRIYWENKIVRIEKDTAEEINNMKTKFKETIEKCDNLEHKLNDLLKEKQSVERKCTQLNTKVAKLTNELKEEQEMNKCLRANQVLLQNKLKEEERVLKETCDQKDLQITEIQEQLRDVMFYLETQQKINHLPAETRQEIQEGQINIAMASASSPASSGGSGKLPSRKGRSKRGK
UniProt Q7L3T8: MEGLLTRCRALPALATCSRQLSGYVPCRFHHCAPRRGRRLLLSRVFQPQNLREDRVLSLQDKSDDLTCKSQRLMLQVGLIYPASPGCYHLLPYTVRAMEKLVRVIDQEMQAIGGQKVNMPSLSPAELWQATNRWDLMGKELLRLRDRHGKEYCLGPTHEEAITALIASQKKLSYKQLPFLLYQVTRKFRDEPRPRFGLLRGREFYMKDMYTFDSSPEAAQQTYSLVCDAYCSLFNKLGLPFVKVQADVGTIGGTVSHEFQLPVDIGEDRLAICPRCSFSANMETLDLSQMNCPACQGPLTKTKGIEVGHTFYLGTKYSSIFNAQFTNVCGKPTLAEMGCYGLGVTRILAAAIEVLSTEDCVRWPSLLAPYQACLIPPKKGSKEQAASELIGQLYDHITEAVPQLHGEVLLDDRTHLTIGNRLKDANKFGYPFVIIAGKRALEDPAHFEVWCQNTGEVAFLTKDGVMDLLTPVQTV
UniProt Q7Z6M1: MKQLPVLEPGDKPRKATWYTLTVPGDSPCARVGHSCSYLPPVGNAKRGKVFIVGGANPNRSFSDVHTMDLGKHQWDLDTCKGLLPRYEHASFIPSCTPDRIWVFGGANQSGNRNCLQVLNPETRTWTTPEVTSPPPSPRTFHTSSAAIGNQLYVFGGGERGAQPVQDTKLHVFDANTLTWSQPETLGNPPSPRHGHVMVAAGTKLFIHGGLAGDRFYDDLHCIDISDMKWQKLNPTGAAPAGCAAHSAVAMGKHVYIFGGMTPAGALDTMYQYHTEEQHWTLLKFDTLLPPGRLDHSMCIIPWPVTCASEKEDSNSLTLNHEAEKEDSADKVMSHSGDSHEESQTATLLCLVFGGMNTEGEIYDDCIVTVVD
UniProt Q6V9R5: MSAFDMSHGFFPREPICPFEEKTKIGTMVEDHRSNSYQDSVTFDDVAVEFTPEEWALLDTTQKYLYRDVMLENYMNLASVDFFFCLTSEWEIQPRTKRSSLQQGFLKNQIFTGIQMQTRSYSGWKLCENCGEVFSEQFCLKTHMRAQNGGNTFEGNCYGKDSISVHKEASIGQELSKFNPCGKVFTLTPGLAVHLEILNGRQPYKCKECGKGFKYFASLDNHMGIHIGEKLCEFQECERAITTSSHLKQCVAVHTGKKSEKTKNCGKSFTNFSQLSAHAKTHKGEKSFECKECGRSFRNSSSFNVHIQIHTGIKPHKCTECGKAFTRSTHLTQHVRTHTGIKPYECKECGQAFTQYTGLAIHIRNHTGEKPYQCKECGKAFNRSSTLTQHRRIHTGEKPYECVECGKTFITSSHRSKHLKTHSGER
UniProt Q6ZN18: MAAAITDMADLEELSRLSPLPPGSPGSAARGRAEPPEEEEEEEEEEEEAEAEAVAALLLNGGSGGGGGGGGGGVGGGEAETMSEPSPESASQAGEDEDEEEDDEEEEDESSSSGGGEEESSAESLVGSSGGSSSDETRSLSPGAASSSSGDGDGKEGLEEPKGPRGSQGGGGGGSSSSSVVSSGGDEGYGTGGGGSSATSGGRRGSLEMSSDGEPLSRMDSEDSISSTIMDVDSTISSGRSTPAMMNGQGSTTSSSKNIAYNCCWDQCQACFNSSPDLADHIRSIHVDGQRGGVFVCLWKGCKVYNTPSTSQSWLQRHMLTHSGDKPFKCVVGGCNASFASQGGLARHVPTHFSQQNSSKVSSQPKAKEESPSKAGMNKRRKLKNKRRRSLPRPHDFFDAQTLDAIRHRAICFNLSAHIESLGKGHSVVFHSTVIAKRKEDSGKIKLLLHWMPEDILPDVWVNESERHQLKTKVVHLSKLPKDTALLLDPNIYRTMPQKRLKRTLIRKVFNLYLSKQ
UniProt Q86SQ9: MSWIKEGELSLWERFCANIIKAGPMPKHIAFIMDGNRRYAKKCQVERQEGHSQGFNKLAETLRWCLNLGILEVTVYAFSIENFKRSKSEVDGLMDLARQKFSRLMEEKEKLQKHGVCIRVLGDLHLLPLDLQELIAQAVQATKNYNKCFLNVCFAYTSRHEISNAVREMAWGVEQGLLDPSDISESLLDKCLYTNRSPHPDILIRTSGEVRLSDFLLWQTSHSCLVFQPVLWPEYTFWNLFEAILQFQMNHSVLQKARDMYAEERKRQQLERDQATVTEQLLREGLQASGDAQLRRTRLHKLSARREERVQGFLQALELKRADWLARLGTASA
UniProt Q7RTT3, whole entry: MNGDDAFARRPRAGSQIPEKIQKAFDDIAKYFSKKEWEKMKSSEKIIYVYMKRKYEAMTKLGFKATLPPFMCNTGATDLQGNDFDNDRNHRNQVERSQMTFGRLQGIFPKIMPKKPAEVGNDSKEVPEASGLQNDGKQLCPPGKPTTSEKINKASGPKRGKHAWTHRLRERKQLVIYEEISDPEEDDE

Compound: Cc1nc(Nc2ncc(C(=O)Nc3c(C)cccc3Cl)s2)cc(N2CCN(CCO)CC2)n1 [dasatinib]
Experiment: log2 fold change of tryptic peptide abundance, ligand vs vehicle (limited proteolysis) (log2 ratio); higher = more trypsin-susceptible (destabilized)
Settings: ligand concentration: 5 uM; sample: K562 cleared lysate

| Target | log2 fold change |
| --- | --- |
| TOM1L2 (peptide sequence: GNSLAEQR, peptide start residue: 392) (UniProt Q6ZVM7) | -0.103 |
| RBBP6 (peptide sequence: GVDKDFESSSMK, peptide start residue: 1155) (UniProt Q7Z6E9) | -0.184 |
| UniProt Q7L804 (peptide sequence: LSSAHSMSDLSGSHMSSEK, peptide start residue: 222) | 0.474 |
| ZNF771 (peptide sequence: THTGERPYECPECDKR, peptide start residue: 112) (UniProt Q7L3S4) | 0.49 |
| BRAP (peptide sequence: CTVCLER, peptide start residue: 264) (UniProt Q7Z569) | -0.476 |
| NUP54 (peptide sequence: MQNHFGAVR, peptide start residue: 440) (UniProt Q7Z3B4) | -0.158 |
| PBRM1 (peptide sequence: KAEYEER, peptide start residue: 1425) (UniProt Q86U86) | -0.375 |
| KIF21A (peptide sequence: IEGCHICTSVTPGEPQVFLGKDK, peptide start residue: 25) (UniProt Q7Z4S6) | 0.207 |
| LDB1 (peptide sequence: KMSGGSTMSSGGGNTNNSNSK, peptide start residue: 300) (UniProt Q86U70) | 0.5 |
| PARS2 (peptide sequence: VLSLQDKSDDLTCK, peptide start residue: 56) (UniProt Q7L3T8) | -0.221 |
| UniProt Q7Z6M4 (peptide sequence: VSEAEFLAR, peptide start residue: 296) | 0.204 |
| MACC1 (peptide sequence: MAWLSQR, peptide start residue: 180) (UniProt Q6ZN28) | -0.372 |
| WDR53 (peptide sequence: LNIEHGEK, peptide start residue: 319) (UniProt Q7Z5U6) | -0.375 |
| POGZ (peptide sequence: HHLTPHAR, peptide start residue: 1079) (UniProt Q7Z3K3) | -0.436 |
| UniProt Q7Z7F0 (peptide sequence: KLCENLLQTVHAEYSR, peptide start residue: 310) | 0.865 |
| HEATR3 (peptide sequence: LQHPSAEVRECACAGLAR, peptide start residue: 47) (UniProt Q7Z4Q2) | 0.338 |
| UniProt Q6ZTW0 (peptide sequence: DHEAVPLSVFR, peptide start residue: 172) | 0.0384 |
| UniProt Q7Z3J3 (peptide sequence: STSGEGFQFGKKDPNFK, peptide start residue: 1953) | -0.0822 |
| MRPL52 (peptide sequence: QENALKPK, peptide start residue: 105) (UniProt Q86TS9) | 0.222 |

2 entries from above, with each value named.
PBRM1 (peptide sequence: KAEYEER, peptide start residue: 1425) (UniProt Q86U86)
  log2 fold change: -0.375
KIF21A (peptide sequence: IEGCHICTSVTPGEPQVFLGKDK, peptide start residue: 25) (UniProt Q7Z4S6)
  log2 fold change: 0.207

The listing continues.

| Target | log2 fold change |
| --- | --- |
| RABEPK (peptide sequence: QLPVLEPGDKPR, peptide start residue: 3) (UniProt Q7Z6M1) | 0.199 |
| MAEA (peptide sequence: LAQPLPMAHCANSR, peptide start residue: 324) (UniProt Q7L5Y9) | 0.125 |
| ZNF562 (peptide sequence: SSTLTQHR, peptide start residue: 384) (UniProt Q6V9R5) | 0.629 |
| DHRS13 (peptide sequence: LANVLFAR, peptide start residue: 202) (UniProt Q6UX07) | -0.206 |
| UBN2 (peptide sequence: QLGVVALNSHK, peptide start residue: 300) (UniProt Q6ZU65) | -0.425 |
| AEBP2 (peptide sequence: SLPRPHDFFDAQTLDAIR, peptide start residue: 390) (UniProt Q6ZN18) | 0.281 |
| THADA (peptide sequence: VISHHMQTCVENR, peptide start residue: 1660) (UniProt Q6YHU6) | -0.341 |
| UniProt Q7Z3J2 (peptide sequence: LNQLSVNLWHLAQR, peptide start residue: 909) | -0.249 |
| DHDDS (peptide sequence: DQATVTEQLLR, peptide start residue: 273) (UniProt Q86SQ9) | -0.32 |
| ZNF627 (peptide sequence: ALTCLASVR, peptide start residue: 315) (UniProt Q7L945) | 0.318 |
| MYH14 (peptide sequence: QLEEAEEEASR, peptide start residue: 1902) (UniProt Q7Z406) | 0.797 |
| UniProt Q6UWZ7 (peptide sequence: LLDTQDKR, peptide start residue: 362) | -0.16 |
| YTHDF3 (peptide sequence: DFDWNLK, peptide start residue: 402) (UniProt Q7Z739) | -0.169 |
| DHX30 (peptide sequence: TKVSCLETVWVSR, peptide start residue: 761) (UniProt Q7L2E3) | 0.966 |
| LIN28B (peptide sequence: EGSPLDIPVDVFVHQSK, peptide start residue: 52) (UniProt Q6ZN17) | 0.34 |
| EP400P1 (peptide sequence: QCLDYHHQEMQALK, peptide start residue: 356) (UniProt Q6ZTU2) | -0.598 |
| DHX29 (peptide sequence: KLQEDGLLSNVSHVIVDEVHER, peptide start residue: 686) (UniProt Q7Z478) | -0.576 |
| UniProt Q7RTT3 (peptide sequence: KYEAMTK, peptide start residue: 54) | 0.0865 |
| MON2 (peptide sequence: EALVPFKDFMQPPASR, peptide start residue: 1696) (UniProt Q7Z3U7) | 0.52 |
